## Percent effect of library compounds

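Phenotypic screen: M. tuberculosis growth, glucose 7H9 medium, 3 days; the read-out is not stated. Tested at 500 µM. The record gives no direction; compounds that gave an IC50 in retests scored well above the rest, so higher reads as more growth inhibition. About 18,000 compounds were tested under these conditions; 7.9% (about 1,400) showed 50% or more at least once.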

Results are given as percent effect. The controls that fix the scale are not given in the record; negative values are as filed. Compounds were drawn at random from those tested, without regard to their results.

Compound | effect
CN(C)c1ccnc(NC(=O)C(C)(C)C)c1 | 10.65
CC[C@@H](O)CN1CCN(C(=O)NC(C)C)CC1 | 2.885
Cc1nn2c(S(=O)(=O)NCC3CC3)c(C)nc2s1 | 18.86
Cc1ncn(Cc2cc(=O)n3ccsc3n2)c(=O)c1C | 1.324
CCC(O)(CC)CN1CCC(O)CC1 | -6.948
Cn1ccc(NC(=O)CN2CC[C@](C)(O)C(C)(C)C2)n1 | -12.58
Cn1cc(CNC(=O)C2CSc3ccccc3O2)cn1 (stereo not given) | 64.08
CCOC(=O)Cn1cnc2sc(C(N)=O)c(C)c2c1=O | -4.36
CC(O)(CNc1ncccc1F)C1CCCC1 (stereo not given) | 65.78
CN(CC1CCCCN1C)C(=O)c1ccc[nH]1 (stereo not given) | 8.5
CCO[C@H]1CN(c2ncc(F)cn2)C[C@@H]1O | -1.345
NC(CO)c1cccc(F)c1 (stereo not given) | -7.744
N#CCCCNC(CO)c1ccc(Cl)cc1 (stereo not given) | 10.22
CN(CC(N)=O)C(=O)C(C)(C)c1ccc(Cl)cc1 | 14.24
Cc1ccc(I)c(C(=O)NCCCC(N)=O)c1 | 12.95
CCc1ccc(C(=O)Nc2ccncc2)o1 | 3.275
CC(C)c1nc(CN2CCCC3(CCNC3)C2)co1 (stereo not given) | 29.83
Cc1ccc(S(=O)(=O)Nc2cccnc2)cc1N(C)C | 32.19
CCn1nc(C)cc1C(=O)Nc1ccnc(N(C)C)n1 | 56.85
Cc1nc2ccc(C(=O)N[C@@H]3COCC[C@H]3O)cc2s1 | 14.52
CCOc1ncccc1NC(=O)N1CCNC(=O)C1 | 3.585
NCCc1ncccc1F | 1.658
CCCN(CC(=O)N(C)C)Cc1ccc(C#N)cc1 | 28.55
CC(C)(C#N)C(=O)Nc1nc2c(s1)CCC2 | 43.26
Cc1ccccc1CNC(=O)N(C)Cc1nnc[nH]1 | 10.25
Cc1ccc(C(=O)N2CCC(F)(F)C(CO)C2)cn1 (stereo not given) | 11.98
NCCNC(=O)c1nc(Cn2cc(I)cn2)no1 | 22.77
CCNC(=O)C1CN(C(=O)C(O)c2ccc(Br)cc2)C1 (stereo not given) | 4.455
Cc1csc(NC(=O)CSc2nccn2C)n1 | -8.602
O=C(CCC1CCCCC1)N1CC[S+]([O-])CC1 | 39.86
O=S(=O)(NCC[C@H]1CCCN1)c1cn2c(n1)CCCC2 | -9.942
CCCC1C(=O)NCCN1C(=O)c1ccc(Br)c(O)c1 (stereo not given) | 5.167
Cc1cc(C(=O)N2C[C@@H](CO)[C@H](N(C)C)C2)nn1C | -1.796
O=C(Nc1ccncc1)c1ccc2c(c1)CCO2 | 38.59
CC(C)(O)C1CCCN1C(=O)Nc1cccnn1 (stereo not given) | -5.078
COCc1nc(C(=O)N(C)C(C)c2ccncc2)cs1 (stereo not given) | -6.26
CCNC(=O)c1cc(N2CCCC(C)CC2)ccn1 (stereo not given) | 57.96
Nc1nnc(SCC2COc3ccccc3O2)s1 (stereo not given) | -8.794
Cc1ccc(S(=O)(=O)Nc2ccc(N(C)C)nc2)cc1 | 45.66
CC(=O)c1csc(C)c1 | -1.896
Cc1cncc(-c2ccc(S(N)(=O)=O)cc2F)c1 | 22.78
Cc1cc(CN(C)C(=O)CN2CCC(N(C)C)C2)on1 (stereo not given) | 7.304
Cc1ccc(C(=O)N2CCCN(C)CC2)nc1 | -7.261
N#Cc1cccc(CCNC(=O)NCCO)c1 | 7.789
CCN1CCN(C(=O)Cc2ccccc2OC)CC1 | 15.58
Cn1nnnc1C1CCCN(C(=O)CC2CCCC2)C1 (stereo not given) | 10.86
CC(=O)N1CCC(CNC(C)Cn2cccn2)CC1 (stereo not given) | -7.901
c1ccc(OCCCOC2CNC2)cc1 | 59.62
COCC(C)Oc1ccc(Cl)cc1S(N)(=O)=O (stereo not given) | 23.74
Cc1nonc1CC(=O)N(C)CCN1CCCCC1=O | -14.92
CC(C)(C)C(=O)CNC(=O)c1ccc[nH]1 | 7.003
Cc1ccnc(NCCNC(=O)CN2CCOC2=O)c1 | -4.378
COc1cccc2c(N)c(C)cnc12 | -38.1
Cc1cc(C(=O)N2CCOCC2C#N)ccc1Cl (stereo not given) | 25.13
CS(=O)(=O)c1cnc(N)c(Cl)c1 | -2.954
CCC[C@H]1CN(C(=O)c2scnc2C)C[C@@H]1N | 5.87
CC(C)(C)CC(=O)Nc1nnc(-c2ccccn2)[nH]1 | 22.51
CCS(=O)(=O)CC(C)NC1CCN(C(C)C)CC1 (stereo not given) | -10.44
COCCn1nc(-c2nc(CC(C)C)no2)ccc1=O | 42.43
Cc1ccc(C(=O)N2CCOCC2)c(=O)[nH]1 | 2.7
CN(C)CCOc1ccc(C#N)cc1 | 12.22
CC(N)C(=O)N(C)Cc1ccncc1 (stereo not given) | 12.74
O=c1ccc(-c2noc(C3CCCC3)n2)c[nH]1 | 2.329
COCCCOc1ccc(N(C)C(N)=O)cc1 | 20.64
CN1CCCN(S(=O)(=O)c2ccccc2F)CC1 | 13
CC(C(N)=O)N1CCN(C(=O)c2ccc(Br)cc2)CC1 (stereo not given) | 12.72
Cc1ccc(C(=O)NCCc2cncn2C)n1C | -7.57
CN(C)CCOc1ccc(NS(C)(=O)=O)cc1Cl | -10.24
O=C(Nc1cncc(Br)c1O)c1cncc(F)c1 | -9.945
CSc1ccc(CC(=O)NCCN2CCCC2=O)cc1 | 9.272
O=S(=O)(CCN1CCC(CO)CC1)c1ccc(Cl)cc1 | 17.18
NC1CCN(CCC(=O)Nc2ccccc2)CC1 | 17.02
CCC(c1cccnc1)N(C)C(=O)c1ccc(CO)o1 (stereo not given) | 6.501
CC(Oc1ccc2c(c1)OCO2)C(=O)NC1CC1 (stereo not given) | 40.8
O=C(Cn1cccnc1=O)NCCCOC1CCCC1 | 19.77

Source: ChEMBL document CHEMBL3988442, “University of Dundee, Small-Polar-MMV Screening Library” (2021).